Results are given in words; binding and its absence hold for the method and conditions named. Binding seen in cells or lysates may run through a third protein. Binding calls can cover weak binding; strength is not graded here.
Tests used:
[1] = biological target: SLY (Sycp3-like Y-linked) protein (mouse (endogenous in testis)); assay: co-IP; antibody (SLY, SLX/SLXL1, SPIN1 or TBL1XR1) cross-linked to protein A/G-coated beads, incubated with whole-testis extracts (WT or Sly-KD) for 1 h, washed in PBS pH 7.5 with 0.65% Tween, eluted with 0.1 M glycine/HCl pH 3.0; Western blot; IgG as negative control
FLAG-tagged SLY (mouse) = assay: co-IP; FLAG antibody magnetic beads incubated with FLAG-SLY transgenic testis lysate for 2 h at 4 °C, washed with TBS-0.5% Tween, eluted with 0.1 M glycine/HCl pH 3.0; Western blot

- binding [1]: binds
- binding (FLAG-tagged SLY (mouse)): binds
B1: TBL1X (Transducin Beta Like 1 X-Linked) (protein, UniProt Q9QXE7 1-527)
chain: MSITSDEVNFLVYRYLQESGFSHSAFTFGIESHISQSNINGTLVPPAALISILQKGLQYVEAEISINEDGTVFDGRPIESLSLIDAVMPDVVQTRQQAFREKLAQQQANAAAAAAAAAATATSTAATTPAAAAQQNPPKNGEATVNGEENGAHAINNHSKPMEIDGDVEIPPSKATVLRGHESEVFICAWNPVSDLLASGSGDSTARIWNLNENSNGGSTQLVLRHCIREGGHDVPSNKDVTSLDWNSDGTLLATGSYDGFARIWTEDGNLASTLGQHKGPIFALKWNKKGNYILSAGVDKTTIIWDAHTGEAKQQFPFHSAPALDVDWQNNTTFASCSTDMCIHVCRLGCDRPVKTFQGHTNEVNAIKWDPSGMLLASCSDDMTLKIWSMKQDACVHDLQAHSKEIYTIKWSPTGPATSNPNSNIMLASASFDSTVRLWDVERGVCIHTLTKHQEPVYSVAFSPDGKYLASGSFDKCVHIWNTQSGSLVHSYRGTGGIFEVCWNARGDKVGASASDGSVCVLDLRK
